Publication PMC5993797
Where two headings read alike, the source gives them in different places. These are yes or no findings as the source states them, for the method shown. In cells and extracts the contact can be indirect. These calls come from enrichment with a bait or labelling near it, and not all partners need be listed.

Chains of the proteins cited; added tags and fusions are not shown.
UniProt Q92804: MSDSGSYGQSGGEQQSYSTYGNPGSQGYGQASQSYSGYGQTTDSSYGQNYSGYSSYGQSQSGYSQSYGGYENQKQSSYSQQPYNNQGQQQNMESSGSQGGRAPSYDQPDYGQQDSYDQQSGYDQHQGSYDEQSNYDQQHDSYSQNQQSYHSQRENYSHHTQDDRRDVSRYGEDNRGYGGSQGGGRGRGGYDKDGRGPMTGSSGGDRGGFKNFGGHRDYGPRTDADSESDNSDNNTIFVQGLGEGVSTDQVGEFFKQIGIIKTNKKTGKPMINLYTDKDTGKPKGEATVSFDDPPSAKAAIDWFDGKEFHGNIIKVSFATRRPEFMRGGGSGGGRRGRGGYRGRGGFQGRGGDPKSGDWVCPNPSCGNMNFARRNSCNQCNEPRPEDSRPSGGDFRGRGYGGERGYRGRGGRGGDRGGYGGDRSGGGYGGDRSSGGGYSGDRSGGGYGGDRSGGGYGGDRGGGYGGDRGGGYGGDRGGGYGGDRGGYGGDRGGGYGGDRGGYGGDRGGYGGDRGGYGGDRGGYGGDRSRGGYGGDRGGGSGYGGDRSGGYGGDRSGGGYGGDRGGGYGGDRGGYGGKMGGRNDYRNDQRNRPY
UniProt Q01844: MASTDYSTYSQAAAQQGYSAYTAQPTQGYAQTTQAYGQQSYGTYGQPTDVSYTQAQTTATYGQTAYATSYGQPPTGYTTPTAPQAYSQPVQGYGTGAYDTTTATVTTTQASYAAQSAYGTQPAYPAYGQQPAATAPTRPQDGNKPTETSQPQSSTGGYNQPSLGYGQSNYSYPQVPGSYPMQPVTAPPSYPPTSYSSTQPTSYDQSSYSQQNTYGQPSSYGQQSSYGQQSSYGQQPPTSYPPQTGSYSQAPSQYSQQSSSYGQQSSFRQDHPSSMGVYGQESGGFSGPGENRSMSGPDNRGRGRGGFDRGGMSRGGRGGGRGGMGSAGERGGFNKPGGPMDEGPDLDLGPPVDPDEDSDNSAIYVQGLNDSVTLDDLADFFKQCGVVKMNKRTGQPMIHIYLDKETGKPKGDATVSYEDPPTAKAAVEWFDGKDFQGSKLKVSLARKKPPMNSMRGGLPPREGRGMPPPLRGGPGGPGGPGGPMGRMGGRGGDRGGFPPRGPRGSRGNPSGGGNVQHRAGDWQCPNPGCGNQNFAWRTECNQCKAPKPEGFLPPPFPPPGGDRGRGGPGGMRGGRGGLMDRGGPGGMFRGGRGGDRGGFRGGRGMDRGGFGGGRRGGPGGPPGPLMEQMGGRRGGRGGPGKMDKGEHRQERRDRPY
UniProt P35637: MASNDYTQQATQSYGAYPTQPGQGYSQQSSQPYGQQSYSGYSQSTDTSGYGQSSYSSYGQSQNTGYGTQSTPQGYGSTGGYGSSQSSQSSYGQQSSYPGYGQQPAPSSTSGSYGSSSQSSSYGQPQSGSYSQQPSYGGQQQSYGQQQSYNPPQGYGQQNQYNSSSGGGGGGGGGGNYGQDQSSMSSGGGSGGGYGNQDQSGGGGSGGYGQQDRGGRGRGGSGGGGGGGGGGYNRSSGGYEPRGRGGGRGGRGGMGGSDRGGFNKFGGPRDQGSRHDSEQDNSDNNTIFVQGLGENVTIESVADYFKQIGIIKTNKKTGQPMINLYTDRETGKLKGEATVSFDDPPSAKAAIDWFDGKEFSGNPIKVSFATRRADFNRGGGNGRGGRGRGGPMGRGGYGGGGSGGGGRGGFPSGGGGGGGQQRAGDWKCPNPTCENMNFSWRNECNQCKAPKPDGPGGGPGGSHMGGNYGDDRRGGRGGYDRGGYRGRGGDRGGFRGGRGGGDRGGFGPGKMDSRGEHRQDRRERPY
UniProt Q92841: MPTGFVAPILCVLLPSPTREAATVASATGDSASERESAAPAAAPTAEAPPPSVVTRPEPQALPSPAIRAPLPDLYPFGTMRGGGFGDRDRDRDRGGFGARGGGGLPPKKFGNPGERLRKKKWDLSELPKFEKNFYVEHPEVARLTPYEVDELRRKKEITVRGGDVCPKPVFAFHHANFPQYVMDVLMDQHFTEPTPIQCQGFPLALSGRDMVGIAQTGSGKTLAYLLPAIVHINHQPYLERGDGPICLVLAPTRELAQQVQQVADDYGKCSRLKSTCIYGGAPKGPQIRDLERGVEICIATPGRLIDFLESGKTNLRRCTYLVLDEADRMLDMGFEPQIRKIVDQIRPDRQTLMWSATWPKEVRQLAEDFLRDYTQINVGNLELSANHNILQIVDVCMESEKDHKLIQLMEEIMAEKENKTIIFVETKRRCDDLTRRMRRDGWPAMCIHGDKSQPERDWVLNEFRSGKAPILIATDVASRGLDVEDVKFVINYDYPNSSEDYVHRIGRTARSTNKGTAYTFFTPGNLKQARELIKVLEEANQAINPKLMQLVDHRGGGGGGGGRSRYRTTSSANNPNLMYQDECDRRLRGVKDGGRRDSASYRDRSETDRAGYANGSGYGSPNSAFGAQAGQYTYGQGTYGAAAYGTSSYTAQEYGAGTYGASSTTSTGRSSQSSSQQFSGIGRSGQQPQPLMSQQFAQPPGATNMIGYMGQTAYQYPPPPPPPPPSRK
UniProt P08621: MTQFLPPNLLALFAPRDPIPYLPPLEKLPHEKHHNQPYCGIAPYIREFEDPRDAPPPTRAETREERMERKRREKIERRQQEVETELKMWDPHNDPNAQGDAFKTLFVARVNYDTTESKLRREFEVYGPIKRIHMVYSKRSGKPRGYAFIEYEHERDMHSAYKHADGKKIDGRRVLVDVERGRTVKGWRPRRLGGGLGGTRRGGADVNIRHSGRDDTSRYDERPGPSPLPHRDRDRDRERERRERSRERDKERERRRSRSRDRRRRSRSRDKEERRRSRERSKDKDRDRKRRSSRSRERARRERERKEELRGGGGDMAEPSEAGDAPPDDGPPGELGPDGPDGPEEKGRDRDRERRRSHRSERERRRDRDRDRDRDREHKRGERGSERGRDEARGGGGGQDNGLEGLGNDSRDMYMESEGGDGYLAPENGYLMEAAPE
UniProt P09012: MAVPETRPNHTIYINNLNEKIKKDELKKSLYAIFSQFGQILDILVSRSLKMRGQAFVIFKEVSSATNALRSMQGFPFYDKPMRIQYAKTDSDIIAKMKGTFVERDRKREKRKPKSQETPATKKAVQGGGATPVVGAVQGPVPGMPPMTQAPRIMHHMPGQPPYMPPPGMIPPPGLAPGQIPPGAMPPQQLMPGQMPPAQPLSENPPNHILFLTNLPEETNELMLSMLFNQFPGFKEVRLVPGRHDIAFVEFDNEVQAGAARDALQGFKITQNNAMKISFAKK

Columns and labels:
[1] = biological target: SNRPC subunit of the U1 snRNP (human (endogenous in HeLa)) (UniProt P09234); assay: affinity purification with mass spectrometry; IP of the U1 snRNP machinery from HeLa nuclear extract, TCA precipitated, peptides labelled by tandem mass tag, MS3 on an Orbitrap Fusion
[2] = biological target: TAF15 (human (endogenous in HeLa)) (UniProt Q92804); assay: affinity purification with mass spectrometry; IPs of FUS, EWSR1, TAF15 or MATR3 from HeLa nuclear extract, TCA precipitated, shotgun mass spectrometry
[3] = biological target: EWSR1 (human (endogenous in HeLa)) (UniProt Q01844); assay: as above
[4] = biological target: FUS (human (endogenous in HeLa)) (UniProt P35637); assay: as above
[5] = biological target: T1, MATR3 (human (endogenous in HeLa)) (UniProt P43243); assay: as above
T1 sequence: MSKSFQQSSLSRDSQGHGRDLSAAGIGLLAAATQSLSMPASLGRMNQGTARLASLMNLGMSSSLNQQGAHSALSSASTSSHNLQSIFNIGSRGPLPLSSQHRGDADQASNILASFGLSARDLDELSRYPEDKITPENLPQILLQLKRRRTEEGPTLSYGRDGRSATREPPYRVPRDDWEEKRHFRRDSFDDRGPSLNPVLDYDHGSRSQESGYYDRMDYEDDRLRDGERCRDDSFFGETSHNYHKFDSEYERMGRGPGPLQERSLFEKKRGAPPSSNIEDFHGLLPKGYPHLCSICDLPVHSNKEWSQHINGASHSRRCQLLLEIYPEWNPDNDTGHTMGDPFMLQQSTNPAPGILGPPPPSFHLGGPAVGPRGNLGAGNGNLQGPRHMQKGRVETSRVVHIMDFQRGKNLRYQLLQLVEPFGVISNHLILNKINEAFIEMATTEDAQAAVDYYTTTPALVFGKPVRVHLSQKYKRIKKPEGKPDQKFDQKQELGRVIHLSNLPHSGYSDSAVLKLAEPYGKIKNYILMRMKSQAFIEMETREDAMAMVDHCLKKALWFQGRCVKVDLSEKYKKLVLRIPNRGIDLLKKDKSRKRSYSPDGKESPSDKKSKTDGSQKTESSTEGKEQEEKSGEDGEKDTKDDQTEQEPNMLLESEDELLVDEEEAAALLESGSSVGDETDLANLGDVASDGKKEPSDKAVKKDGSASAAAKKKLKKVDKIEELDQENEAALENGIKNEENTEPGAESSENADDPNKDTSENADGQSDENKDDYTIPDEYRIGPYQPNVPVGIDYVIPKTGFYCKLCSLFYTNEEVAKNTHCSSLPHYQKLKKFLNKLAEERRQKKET

[6] = biological target: TAF15 (human (endogenous in HeLa)) (UniProt Q92804); assay: affinity purification with mass spectrometry; IPs from HeLa cell nuclear extract with antibodies to FUS, EWSR1, TAF15 or MATR3 cross-linked to Protein A Sepharose; Coomassie-stained gel, individual bands excised and identified by mass spectrometry
[7] = biological target: EWSR1 (human (endogenous in HeLa)) (UniProt Q01844); assay: as above
[8] = biological target: FUS (human (endogenous in HeLa)) (UniProt P35637); assay: as above
[9] = biological target: SNRPC subunit of the U1 snRNP (human (endogenous in HeLa)) (UniProt P09234); assay: affinity purification with mass spectrometry; IP of the U1 snRNP machinery from HeLa nuclear extract, TCA precipitated, peptides labelled by tandem mass tag, MS3 on an Orbitrap Fusion; remark: listed apart in the source

Measured: binding

DDX17 (from UniProt Q92841 1-729)
binds: [1] | [2] | [3] | [4] | [5]

SNRNP70 (from UniProt P08621 1-437)
binds: [1] | [6] | [7] | [8]

SNRPA (from UniProt P09012 1-282)
binds: [1] | [6] | [7] | [8]

SNRPC subunit of the U1 snRNP (from UniProt P09234 1-159)
binds: [6] | [7] | [8]

B1: MATR3 (protein, UniProt P43243 1-847)
chain: MSKSFQQSSLSRDSQGHGRDLSAAGIGLLAAATQSLSMPASLGRMNQGTARLASLMNLGMSSSLNQQGAHSALSSASTSSHNLQSIFNIGSRGPLPLSSQHRGDADQASNILASFGLSARDLDELSRYPEDKITPENLPQILLQLKRRRTEEGPTLSYGRDGRSATREPPYRVPRDDWEEKRHFRRDSFDDRGPSLNPVLDYDHGSRSQESGYYDRMDYEDDRLRDGERCRDDSFFGETSHNYHKFDSEYERMGRGPGPLQERSLFEKKRGAPPSSNIEDFHGLLPKGYPHLCSICDLPVHSNKEWSQHINGASHSRRCQLLLEIYPEWNPDNDTGHTMGDPFMLQQSTNPAPGILGPPPPSFHLGGPAVGPRGNLGAGNGNLQGPRHMQKGRVETSRVVHIMDFQRGKNLRYQLLQLVEPFGVISNHLILNKINEAFIEMATTEDAQAAVDYYTTTPALVFGKPVRVHLSQKYKRIKKPEGKPDQKFDQKQELGRVIHLSNLPHSGYSDSAVLKLAEPYGKIKNYILMRMKSQAFIEMETREDAMAMVDHCLKKALWFQGRCVKVDLSEKYKKLVLRIPNRGIDLLKKDKSRKRSYSPDGKESPSDKKSKTDGSQKTESSTEGKEQEEKSGEDGEKDTKDDQTEQEPNMLLESEDELLVDEEEAAALLESGSSVGDETDLANLGDVASDGKKEPSDKAVKKDGSASAAAKKKLKKVDKIEELDQENEAALENGIKNEENTEPGAESSENADDPNKDTSENADGQSDENKDDYTIPDEYRIGPYQPNVPVGIDYVIPKTGFYCKLCSLFYTNEEVAKNTHCSSLPHYQKLKKFLNKLAEERRQKKET
binds: [9] | [2] | [3] | [4]
